# According to the supplement of paper PMC10849652:
# Amino acid sequences for entries named in this document (tags omitted). A change or cut given only in a name is not applied to a line headed by its entry.
# UniProt Q9NYM9: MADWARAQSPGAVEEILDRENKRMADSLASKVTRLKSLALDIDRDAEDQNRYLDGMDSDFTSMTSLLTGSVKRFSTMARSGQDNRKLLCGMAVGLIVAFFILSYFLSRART
# UniProt P30043: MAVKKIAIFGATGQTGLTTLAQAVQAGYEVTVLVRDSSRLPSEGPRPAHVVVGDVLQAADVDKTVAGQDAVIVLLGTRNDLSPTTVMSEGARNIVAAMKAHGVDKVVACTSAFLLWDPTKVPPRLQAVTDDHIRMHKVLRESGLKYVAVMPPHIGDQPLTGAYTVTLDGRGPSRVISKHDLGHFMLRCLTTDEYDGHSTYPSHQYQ
# UniProt Q8TDN6: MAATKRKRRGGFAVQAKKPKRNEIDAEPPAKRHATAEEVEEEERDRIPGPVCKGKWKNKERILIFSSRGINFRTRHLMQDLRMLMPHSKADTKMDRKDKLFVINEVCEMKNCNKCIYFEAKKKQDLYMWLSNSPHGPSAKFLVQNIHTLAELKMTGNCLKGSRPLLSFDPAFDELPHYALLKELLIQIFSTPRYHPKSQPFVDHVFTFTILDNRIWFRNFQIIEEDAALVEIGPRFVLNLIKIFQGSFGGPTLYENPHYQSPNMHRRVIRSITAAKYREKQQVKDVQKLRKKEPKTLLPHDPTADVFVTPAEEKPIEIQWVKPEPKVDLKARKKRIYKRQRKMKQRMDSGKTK
# UniProt O75882: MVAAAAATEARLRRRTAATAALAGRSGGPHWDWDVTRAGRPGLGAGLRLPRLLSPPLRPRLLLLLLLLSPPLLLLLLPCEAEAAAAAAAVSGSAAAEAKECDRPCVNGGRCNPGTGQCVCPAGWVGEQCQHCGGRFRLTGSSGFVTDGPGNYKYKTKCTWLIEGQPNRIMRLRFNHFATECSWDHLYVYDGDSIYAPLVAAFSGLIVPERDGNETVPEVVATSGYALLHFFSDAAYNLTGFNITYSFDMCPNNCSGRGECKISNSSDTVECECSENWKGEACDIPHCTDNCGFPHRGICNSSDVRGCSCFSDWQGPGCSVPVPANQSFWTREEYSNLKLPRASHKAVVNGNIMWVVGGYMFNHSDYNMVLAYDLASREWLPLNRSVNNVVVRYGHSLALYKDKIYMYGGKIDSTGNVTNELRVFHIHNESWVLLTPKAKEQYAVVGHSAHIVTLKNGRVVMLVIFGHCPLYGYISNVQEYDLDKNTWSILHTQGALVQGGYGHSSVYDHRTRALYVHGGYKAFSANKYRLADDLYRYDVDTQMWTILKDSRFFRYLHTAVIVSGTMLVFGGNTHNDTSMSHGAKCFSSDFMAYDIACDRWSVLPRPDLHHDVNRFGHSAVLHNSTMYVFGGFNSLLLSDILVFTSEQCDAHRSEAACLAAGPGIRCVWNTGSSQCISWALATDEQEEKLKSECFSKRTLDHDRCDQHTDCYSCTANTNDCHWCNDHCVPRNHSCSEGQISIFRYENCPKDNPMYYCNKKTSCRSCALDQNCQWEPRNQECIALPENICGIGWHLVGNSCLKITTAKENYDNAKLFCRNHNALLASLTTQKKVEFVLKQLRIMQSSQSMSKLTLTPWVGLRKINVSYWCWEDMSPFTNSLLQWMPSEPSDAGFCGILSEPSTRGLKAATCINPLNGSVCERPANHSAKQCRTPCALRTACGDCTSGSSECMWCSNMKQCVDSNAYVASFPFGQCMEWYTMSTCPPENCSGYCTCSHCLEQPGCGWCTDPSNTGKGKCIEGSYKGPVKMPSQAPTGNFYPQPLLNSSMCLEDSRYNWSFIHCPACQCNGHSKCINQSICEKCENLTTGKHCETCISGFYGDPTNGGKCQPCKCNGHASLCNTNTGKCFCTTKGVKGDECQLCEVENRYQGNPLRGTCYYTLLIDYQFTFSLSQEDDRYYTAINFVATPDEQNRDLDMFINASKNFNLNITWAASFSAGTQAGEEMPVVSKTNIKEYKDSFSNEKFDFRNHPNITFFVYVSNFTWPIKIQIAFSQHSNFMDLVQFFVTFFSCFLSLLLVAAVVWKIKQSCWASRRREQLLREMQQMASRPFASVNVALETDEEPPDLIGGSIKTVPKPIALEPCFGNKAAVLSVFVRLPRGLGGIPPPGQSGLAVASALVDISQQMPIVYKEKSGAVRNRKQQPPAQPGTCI
# UniProt Q9BYG0: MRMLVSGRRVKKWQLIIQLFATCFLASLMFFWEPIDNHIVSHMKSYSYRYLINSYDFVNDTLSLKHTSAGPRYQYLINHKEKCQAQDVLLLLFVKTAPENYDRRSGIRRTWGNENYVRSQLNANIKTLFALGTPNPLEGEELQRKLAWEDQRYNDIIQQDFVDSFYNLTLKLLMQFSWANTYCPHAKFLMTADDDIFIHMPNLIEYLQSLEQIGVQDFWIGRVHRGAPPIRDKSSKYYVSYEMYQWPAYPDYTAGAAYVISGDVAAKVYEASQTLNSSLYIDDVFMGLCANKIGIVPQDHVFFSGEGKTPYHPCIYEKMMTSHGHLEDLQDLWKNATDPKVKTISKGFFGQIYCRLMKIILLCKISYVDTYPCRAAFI
# UniProt Q9Y679: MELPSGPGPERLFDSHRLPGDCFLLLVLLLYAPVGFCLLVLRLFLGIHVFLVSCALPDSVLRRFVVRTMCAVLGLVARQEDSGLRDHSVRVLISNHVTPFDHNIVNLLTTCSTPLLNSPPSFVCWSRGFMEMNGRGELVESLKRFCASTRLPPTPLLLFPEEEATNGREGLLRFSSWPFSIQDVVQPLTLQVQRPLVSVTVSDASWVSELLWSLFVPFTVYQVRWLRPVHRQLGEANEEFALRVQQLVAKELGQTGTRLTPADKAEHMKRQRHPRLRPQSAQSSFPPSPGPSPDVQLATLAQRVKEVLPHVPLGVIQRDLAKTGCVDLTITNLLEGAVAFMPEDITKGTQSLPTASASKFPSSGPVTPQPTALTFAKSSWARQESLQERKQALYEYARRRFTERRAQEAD
# UniProt Q67FW5: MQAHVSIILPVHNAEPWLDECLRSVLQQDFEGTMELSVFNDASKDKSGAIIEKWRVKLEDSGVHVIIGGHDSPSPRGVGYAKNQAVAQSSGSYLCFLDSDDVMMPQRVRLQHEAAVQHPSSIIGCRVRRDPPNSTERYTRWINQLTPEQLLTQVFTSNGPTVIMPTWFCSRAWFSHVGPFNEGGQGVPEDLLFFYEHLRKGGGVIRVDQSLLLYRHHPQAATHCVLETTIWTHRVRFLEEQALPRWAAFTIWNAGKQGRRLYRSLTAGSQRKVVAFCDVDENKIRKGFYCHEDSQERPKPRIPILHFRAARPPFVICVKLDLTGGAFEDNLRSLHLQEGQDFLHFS
# UniProt P11274: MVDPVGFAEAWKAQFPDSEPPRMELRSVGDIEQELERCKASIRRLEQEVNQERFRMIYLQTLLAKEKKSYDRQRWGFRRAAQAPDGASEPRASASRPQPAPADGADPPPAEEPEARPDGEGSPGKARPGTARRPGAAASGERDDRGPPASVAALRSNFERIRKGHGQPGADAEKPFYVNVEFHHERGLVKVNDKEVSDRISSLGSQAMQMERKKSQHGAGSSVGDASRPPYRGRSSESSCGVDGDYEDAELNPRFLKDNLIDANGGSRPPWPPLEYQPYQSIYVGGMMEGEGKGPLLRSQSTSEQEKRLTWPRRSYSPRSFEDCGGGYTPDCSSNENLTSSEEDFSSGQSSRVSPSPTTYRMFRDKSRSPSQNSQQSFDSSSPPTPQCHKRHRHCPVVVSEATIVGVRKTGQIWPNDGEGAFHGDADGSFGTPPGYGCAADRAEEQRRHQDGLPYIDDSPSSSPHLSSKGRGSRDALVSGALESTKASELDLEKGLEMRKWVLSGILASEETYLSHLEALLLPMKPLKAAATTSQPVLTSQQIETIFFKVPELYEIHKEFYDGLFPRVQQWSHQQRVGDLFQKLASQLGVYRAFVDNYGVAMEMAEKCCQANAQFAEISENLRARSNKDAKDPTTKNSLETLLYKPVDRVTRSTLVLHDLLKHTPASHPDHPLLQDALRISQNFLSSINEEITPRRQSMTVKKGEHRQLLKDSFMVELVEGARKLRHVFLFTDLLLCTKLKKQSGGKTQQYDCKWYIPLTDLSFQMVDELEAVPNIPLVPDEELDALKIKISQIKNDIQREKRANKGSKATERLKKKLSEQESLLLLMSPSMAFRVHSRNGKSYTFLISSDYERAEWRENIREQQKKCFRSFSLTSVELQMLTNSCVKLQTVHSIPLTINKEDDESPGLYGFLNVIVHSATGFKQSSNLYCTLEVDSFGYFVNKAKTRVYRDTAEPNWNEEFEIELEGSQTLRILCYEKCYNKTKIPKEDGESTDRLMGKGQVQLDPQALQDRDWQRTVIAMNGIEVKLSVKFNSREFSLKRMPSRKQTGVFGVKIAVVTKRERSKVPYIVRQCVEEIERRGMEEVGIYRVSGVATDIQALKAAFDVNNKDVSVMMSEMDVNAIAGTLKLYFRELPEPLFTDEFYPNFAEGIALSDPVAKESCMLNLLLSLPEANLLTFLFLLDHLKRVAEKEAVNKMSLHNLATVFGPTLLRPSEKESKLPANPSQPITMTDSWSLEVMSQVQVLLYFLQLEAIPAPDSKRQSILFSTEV
# UniProt Q9P287, whole entry, looked up: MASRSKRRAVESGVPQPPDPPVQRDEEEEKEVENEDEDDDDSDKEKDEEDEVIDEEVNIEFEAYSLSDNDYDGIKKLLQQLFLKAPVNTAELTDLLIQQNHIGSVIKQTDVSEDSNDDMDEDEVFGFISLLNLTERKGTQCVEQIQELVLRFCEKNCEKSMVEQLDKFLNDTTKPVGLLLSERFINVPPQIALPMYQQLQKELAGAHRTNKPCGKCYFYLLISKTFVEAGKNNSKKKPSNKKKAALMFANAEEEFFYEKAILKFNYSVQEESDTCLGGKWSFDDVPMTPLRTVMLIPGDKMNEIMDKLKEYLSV
# UniProt Q86UU0: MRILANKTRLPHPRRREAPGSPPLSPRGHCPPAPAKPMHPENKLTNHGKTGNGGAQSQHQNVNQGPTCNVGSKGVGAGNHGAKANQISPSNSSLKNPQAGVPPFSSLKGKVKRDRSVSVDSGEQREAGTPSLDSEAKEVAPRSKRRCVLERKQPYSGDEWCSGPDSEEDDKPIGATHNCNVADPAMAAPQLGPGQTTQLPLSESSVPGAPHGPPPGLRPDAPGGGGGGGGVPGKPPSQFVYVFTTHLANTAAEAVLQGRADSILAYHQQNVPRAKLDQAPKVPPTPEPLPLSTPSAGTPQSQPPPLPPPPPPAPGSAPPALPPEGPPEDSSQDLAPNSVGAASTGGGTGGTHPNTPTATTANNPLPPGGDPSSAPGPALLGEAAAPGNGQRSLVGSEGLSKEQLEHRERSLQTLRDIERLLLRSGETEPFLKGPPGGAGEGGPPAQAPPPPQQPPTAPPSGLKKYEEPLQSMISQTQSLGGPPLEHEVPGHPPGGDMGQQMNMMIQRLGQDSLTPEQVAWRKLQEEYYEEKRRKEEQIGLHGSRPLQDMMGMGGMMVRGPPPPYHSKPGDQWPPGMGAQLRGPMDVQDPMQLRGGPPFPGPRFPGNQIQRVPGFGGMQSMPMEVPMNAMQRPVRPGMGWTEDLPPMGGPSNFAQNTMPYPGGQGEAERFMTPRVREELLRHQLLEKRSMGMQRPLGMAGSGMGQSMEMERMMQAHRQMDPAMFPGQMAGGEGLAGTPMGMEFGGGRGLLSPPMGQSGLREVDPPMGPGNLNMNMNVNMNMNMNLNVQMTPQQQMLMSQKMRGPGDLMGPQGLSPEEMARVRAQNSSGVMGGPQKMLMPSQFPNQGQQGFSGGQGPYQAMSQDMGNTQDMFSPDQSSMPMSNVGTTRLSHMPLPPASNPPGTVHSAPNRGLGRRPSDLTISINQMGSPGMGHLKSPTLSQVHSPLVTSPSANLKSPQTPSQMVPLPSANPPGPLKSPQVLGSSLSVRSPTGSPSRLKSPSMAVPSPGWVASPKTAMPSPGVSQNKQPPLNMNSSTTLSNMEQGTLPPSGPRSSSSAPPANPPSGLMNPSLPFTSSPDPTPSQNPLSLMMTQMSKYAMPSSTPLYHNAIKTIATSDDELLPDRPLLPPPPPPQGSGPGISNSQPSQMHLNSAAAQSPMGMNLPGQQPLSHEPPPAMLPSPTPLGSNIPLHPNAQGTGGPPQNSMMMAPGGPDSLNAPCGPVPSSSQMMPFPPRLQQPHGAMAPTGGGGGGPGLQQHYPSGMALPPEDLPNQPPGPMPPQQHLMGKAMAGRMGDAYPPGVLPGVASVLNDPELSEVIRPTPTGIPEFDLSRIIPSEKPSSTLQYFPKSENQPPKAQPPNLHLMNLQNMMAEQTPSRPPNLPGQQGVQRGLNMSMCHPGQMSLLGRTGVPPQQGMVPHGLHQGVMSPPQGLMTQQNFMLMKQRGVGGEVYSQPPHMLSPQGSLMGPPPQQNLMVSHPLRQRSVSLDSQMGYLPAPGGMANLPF
# UniProt Q9HCU9: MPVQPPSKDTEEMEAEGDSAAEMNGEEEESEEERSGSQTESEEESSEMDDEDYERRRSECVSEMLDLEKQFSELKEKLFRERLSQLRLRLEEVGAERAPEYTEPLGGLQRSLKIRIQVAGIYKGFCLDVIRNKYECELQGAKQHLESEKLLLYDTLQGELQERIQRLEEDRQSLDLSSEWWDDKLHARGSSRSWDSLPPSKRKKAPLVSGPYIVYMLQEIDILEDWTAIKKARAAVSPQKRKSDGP
# Some of the results follow.
# Columns and labels:
# Experiment in all cases: log2 fold change, soluble protein after heating vs DMSO (PISA); higher = thermal stabilisation; K562 cells, 10 uM, 30 min; active = over 0.2 and 3.5 SD of the protein, either way, in both replicates (recomputed)
# saracatinib = compound: CN1CCN(CCOc2cc(OC3CCOCC3)c3c(Nc4c(Cl)ccc5c4OCO5)ncnc3c2)CC1 [saracatinib]
# Summary of the method: (§1)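 For each measurement, 10 μM compound was applied for 30 min to K562 cells at 2×10^6 cells/mL. Aliquots were heated for 3 min across 48°C-58°C, pooled, and extracted in PBS with 0.5% NP-40 at 4°C; the supernatant after 21,000xg for 90 min was soluble protein. This was quantified by TMTpro 16plex LC-MS/MS with channel sums equalised, and thermal stability was reported relative to control samples from duplicates, on a log2 fold-change scale.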
# sotrastaurin = compound: CN1CCN(c2nc(C3=C(c4c[nH]c5ccccc45)C(=O)NC3=O)c3ccccc3n2)CC1 [sotrastaurin]
# Summary of the method: as §1
# alvocidib = compound: CN1CC[C@H](c2c(O)cc(O)c3c(=O)cc(-c4ccccc4Cl)oc23)[C@H](O)C1 [alvocidib]
# Summary of the method: as §1
# Tubastatin A = compound: CN1CCc2c(c3ccccc3n2Cc2ccc(C(=O)NO)cc2)C1 [Tubastatin A]
# Summary of the method: as §1
# [1] = compound: CNC(=O)C1=CC=CC=C1NC2=NC(=NC=C2Cl)NC3=C(C=C(C=C3)N4CCOCC4)OC
# Summary of the method: as §1
# defactinib = compound: CNC(=O)c1ccc(Nc2ncc(C(F)(F)F)c(NCc3nccnc3N(C)S(C)(=O)=O)n2)cc1 [defactinib]
# Summary of the method: as §1
# rucaparib = compound: CNCc1ccc(-c2[nH]c3cc(F)cc4c3c2CCNC4=O)cc1 [rucaparib]
# Summary of the method: as §1
# [2] = compound: CNc1nc(-c2ccc3c(N)n[nH]c3c2)cc(N2C[C@@H](C(=O)NC3CCCCC3)CC[C@H]2C)n1
# Summary of the method: as §1
# encorafenib = compound: COC(=O)N[C@@H](C)CNc1nccc(-c2cn(C(C)C)nc2-c2cc(Cl)cc(NS(C)(=O)=O)c2F)n1 [encorafenib]
# Summary of the method: as §1
# [3] = compound: COC(=O)[C@H](CCSC)NC(=O)C1=C(C=C(C=C1)NC[C@H](CS)N)C2=CC=CC=C2
# Summary of the method: as §1
# filanesib = compound: CON(C)C(=O)N1N=C(c2cc(F)ccc2F)S[C@@]1(CCCN)c1ccccc1 [filanesib]
# Summary of the method: as §1
# zotarolimus = compound: CO[C@H]1C[C@@H]2CC[C@@H](C)[C@@](O)(O2)C(=O)C(=O)N2CCCC[C@H]2C(=O)O[C@H]([C@H](C)C[C@@H]2CC[C@H](n3cnnn3)[C@H](OC)C2)CC(=O)[C@H](C)/C=C(\C)[C@@H](O)[C@@H](OC)C(=O)[C@H](C)C[C@H](C)/C=C/C=C/C=C/1C [zotarolimus]
# Summary of the method: as §1
# idasanutlin = compound: COc1cc(C(=O)O)ccc1NC(=O)[C@@H]1N[C@@H](CC(C)(C)C)[C@](C#N)(c2ccc(Cl)cc2F)[C@H]1c1cccc(Cl)c1F [idasanutlin]
# Summary of the method: as §1
# alisertib = compound: COc1cc(Nc2ncc3c(n2)-c2ccc(Cl)cc2C(c2c(F)cccc2OC)=NC3)ccc1C(=O)O [alisertib]
# Summary of the method: as §1
# [4] = compound: COc1cc2nc(-c3cc(F)ccc3O)nc(N[C@@H]3CNC[C@H]3C(C)(C)O)c2cc1OC
# Summary of the method: as §1
# gefitinib = compound: COc1cc2ncnc(Nc3ccc(F)c(Cl)c3)c2cc1OCCCN1CCOCC1 [gefitinib]
# Summary of the method: as §1
# [5] = compound: COc1cccc2cc(-c3nc([C@H]4CC[C@H](C(=O)O)CC4)n4ncnc(N)c34)[nH]c12
# Summary of the method: as §1
# lapatinib = compound: CS(=O)(=O)CCNCc1ccc(-c2ccc3ncnc(Nc4ccc(OCc5cccc(F)c5)c(Cl)c4)c3c2)o1 [lapatinib]
# Summary of the method: as §1
# [6] = compound: COC1=CC=C(C=C1)CN2C=CC3=C2C=C(C=C3)C(=O)NO
# Summary of the method: as §1
# pictilisib = compound: CS(=O)(=O)N1CCN(Cc2cc3nc(-c4cccc5[nH]ncc45)nc(N4CCOCC4)c3s2)CC1 [pictilisib]
# Summary of the method: as §1
Target,log2 fold change (saracatinib),log2 fold change (sotrastaurin),log2 fold change (alvocidib),log2 fold change (Tubastatin A),log2 fold change [1],log2 fold change (defactinib),log2 fold change (rucaparib),log2 fold change [2],log2 fold change (encorafenib),log2 fold change [3],log2 fold change (filanesib),log2 fold change (zotarolimus),log2 fold change (idasanutlin),log2 fold change (alisertib),log2 fold change [4],log2 fold change (gefitinib),log2 fold change [5],log2 fold change (lapatinib),log2 fold change [6],log2 fold change (pictilisib)
BET1L (UniProt Q9NYM9),inactive: 0.127,inactive: 0.114,inactive: -0.382,inactive: 0.013,inactive: 0.053,inactive: -0.072,inactive: 0.097,inactive: 0.024,inactive: -0.06,inactive: 0.025,inactive: -0.01,inactive: 0.012,inactive: -0.111,inactive: 0.002,inactive: -0.007,inactive: -0.005,inactive: 0.085,inactive: 0.02,,
AURKAIP1 (UniProt Q9NWT8),inactive: -0.101,inactive: 0.002,inactive: 0.322,inactive: 0.217,inactive: -0.025,inactive: 0.378,inactive: 0.282,inactive: 0.099,inactive: 0.069,inactive: -0.04,inactive: 0.332,inactive: 0.033,inactive: 0.05,inactive: -0.006,,,inactive: -0.151,,,
BLVRB (UniProt P30043),inactive: 0.101,inactive: -0.047,,inactive: -0.002,inactive: 0.058,inactive: -0.045,inactive: 0.043,inactive: 0.061,inactive: -0.007,inactive: -0.003,inactive: -0.073,inactive: 0.024,inactive: -0.045,inactive: -0.07,inactive: 0.045,inactive: 0.061,inactive: 0.015,inactive: 0.071,inactive: 0.113,inactive: 0.037
BRIX1 (UniProt Q8TDN6),inactive: -0.106,inactive: -0.051,,inactive: 0.2,inactive: -0.154,inactive: 0.394,inactive: 0.253,inactive: 0.129,inactive: 0.123,inactive: 0.017,inactive: 0.574,inactive: 0.132,inactive: 0.397,inactive: -0.23,inactive: -0.224,inactive: -0.039,inactive: -0.193,inactive: 0.218,inactive: -0.006,inactive: -0.004
ATRN (UniProt O75882),inactive: 0.05,inactive: -0.047,,inactive: 0.012,inactive: -0.017,inactive: -0.065,inactive: 0.022,inactive: 0.12,inactive: -0.05,inactive: 0.045,inactive: -0.037,inactive: 0,inactive: -0.032,inactive: 0.095,inactive: -0.004,inactive: 0.108,inactive: 0.111,inactive: 0.043,inactive: -0.243,inactive: 0.153
B3GNT5 (UniProt Q9BYG0),inactive: 0.332,inactive: 0.031,inactive: 0.09,,inactive: 0.067,inactive: 0.05,,inactive: -0.081,,inactive: -0.032,inactive: -0.014,inactive: 0.016,,inactive: -0.016,,inactive: -0.006,inactive: 0.069,,inactive: -0.028,
BCLAF1 (UniProt Q9NYF8),inactive: -0.033,inactive: 0.039,,inactive: 0.184,inactive: -0.275,inactive: -0.382,inactive: 0.017,inactive: -0.057,inactive: 0.013,inactive: -0.028,inactive: 0.103,inactive: 0.068,inactive: 0.127,inactive: 0.074,inactive: -0.215,inactive: 0.01,inactive: 0.033,inactive: 0.101,inactive: -0.107,inactive: -0.109
BCL9 (UniProt O00512),inactive: 0.043,inactive: -0.16,inactive: 0.014,inactive: -0.17,inactive: 0.094,inactive: -0.049,inactive: 0.052,inactive: -0.134,inactive: -0.024,inactive: 0.001,inactive: 0.003,inactive: -0.153,inactive: 0.006,,inactive: -0.048,,,inactive: 0.038,inactive: -0.054,inactive: 0.084
BRD3 (UniProt Q15059),inactive: 0.093,inactive: -0.116,,active: -0.571,inactive: 0.011,inactive: -0.319,inactive: -0.083,inactive: 0.325,inactive: 0.086,inactive: -0.128,inactive: 0.297,inactive: -0.077,inactive: -0.012,inactive: -0.035,inactive: 0.086,inactive: 0.227,inactive: -0.002,inactive: -0.057,inactive: 0.027,inactive: 0.081
AUP1 (UniProt Q9Y679),inactive: 0.052,inactive: -0.116,,inactive: 0.031,inactive: -0.062,inactive: -0.015,inactive: -0.04,inactive: -0.041,inactive: 0.029,inactive: -0.037,active: -0.269,inactive: -0.014,inactive: -0.022,inactive: -0.013,inactive: -0.163,inactive: -0.034,inactive: 0.022,inactive: -0.007,inactive: -0.069,inactive: -0.059
BICD2 isoform 2 (UniProt Q8TD16),inactive: -0.035,inactive: -0.087,inactive: -0.039,inactive: 0.024,inactive: 0.023,inactive: -0.157,inactive: 0.008,inactive: 0.023,inactive: 0.022,inactive: -0.043,inactive: -0.031,inactive: 0.031,inactive: -0.003,inactive: -0.027,inactive: 0.019,inactive: 0.033,inactive: -0.036,inactive: -0.01,inactive: 0.177,inactive: -0.006
B3GNTL1 (UniProt Q67FW5),inactive: 0.019,inactive: 0.066,inactive: 0.011,inactive: -0.086,inactive: -0.032,inactive: 0.014,,inactive: -0.094,,inactive: 0.04,inactive: -0.006,inactive: -0.009,inactive: -0.05,inactive: -0.028,inactive: 0.099,inactive: -0.04,inactive: 0.023,inactive: 0.028,inactive: -0.033,inactive: 0.008
BCR (UniProt P11274),inactive: -0.052,inactive: -0.412,inactive: 0.152,inactive: 0.43,inactive: -0.01,,inactive: 0.524,inactive: -0.001,inactive: 0.203,,inactive: 0.644,inactive: 0.18,,inactive: -0.176,inactive: -0.004,,inactive: -0.172,inactive: -0.012,inactive: -0.092,inactive: -0.466
BCCIP isoform 2 (UniProt Q9P287),inactive: -0.004,inactive: -0.044,,inactive: -0.036,inactive: 0.013,inactive: -0.019,inactive: 0.087,inactive: -0.005,inactive: 0.037,inactive: -0.024,inactive: 0.05,inactive: -0.002,inactive: -0.021,inactive: 0.024,inactive: 0.021,inactive: 0,inactive: 0.026,inactive: -0.007,inactive: -0.059,inactive: -0.021
BCL9L (UniProt Q86UU0),inactive: -0.042,inactive: 0.042,,inactive: 0.053,inactive: -0.017,inactive: -0.014,inactive: 0.026,inactive: -0.092,inactive: -0.033,inactive: 0.069,inactive: 0.017,inactive: -0.043,inactive: 0.028,inactive: 0.014,inactive: 0.02,inactive: 0.034,inactive: -0.067,inactive: 0.011,inactive: -0.048,inactive: -0.007
BCCIP (UniProt Q9P287),inactive: -0.132,inactive: 0,,inactive: -0.045,inactive: -0.013,inactive: 0.072,inactive: 0.165,inactive: 0.02,inactive: 0.076,inactive: -0.049,inactive: 0.06,inactive: 0.031,inactive: -0.048,inactive: -0.086,inactive: 0.033,inactive: 0.036,inactive: -0.024,inactive: 0.01,inactive: -0.022,inactive: -0.024
BLOC1S3 (UniProt Q6QNY0),inactive: 0.049,inactive: 0.034,,inactive: -0.064,inactive: -0.05,inactive: -0.044,inactive: -0.047,inactive: -0.031,inactive: -0.035,inactive: 0.028,inactive: -0.066,inactive: -0.014,inactive: -0.149,inactive: 0.005,inactive: -0.018,inactive: 0.048,inactive: 0.058,inactive: -0.007,inactive: -0.013,inactive: 0.126
BRMS1 (UniProt Q9HCU9),inactive: -0.185,,,inactive: 0.001,,,inactive: -0.017,inactive: 0.007,inactive: 0.106,,,,inactive: 0.066,inactive: -0.074,,,inactive: 0.007,,,inactive: 0.042

# Individual results from the entries so far:
# AUP1 (UniProt Q9Y679) – log2 fold change (idasanutlin): inactive: -0.022
# BCL9L (UniProt Q86UU0) – log2 fold change (gefitinib): inactive: 0.034
